According to patent US20140221623A1 (Ablynx, published 2014):
Results are given in words; binding and its absence hold for the method and conditions named. Some entries that bind do so weakly or less than the wild type.

Molecular target: soluble IL6-R in cynomolgus plasma (cynomolgus monkey (Macaca fascicularis))
Experiment: FACS on U266 cells in presence of cynomolgus plasma

B1: IL6R04 (VHH)
VHH: EVQLVESGGGLVQAGGSLRLSCAASGFTFDDYDIGWFRQAPGKEREGVSGISSSDGNTYYADSVKGRFTISSDNAKNTVYLQMNSLKPEDTAVYYCAAEPPDSSWYLDGSPEFFKYWGQGTQVTVSS
notes: also called PMP32C9; PMP 32 C9
binding: binds
